Measurements: article PMC5343486
No constants are given. Whether binding was seen depends on the method and setting. In cells and extracts the contact can be indirect. Some binding calls cover weakened binding; strength is not graded here. Sequences can lack the tags named with a protein.

T1: RecN-Flag (E. coli), P05824
T1 chain: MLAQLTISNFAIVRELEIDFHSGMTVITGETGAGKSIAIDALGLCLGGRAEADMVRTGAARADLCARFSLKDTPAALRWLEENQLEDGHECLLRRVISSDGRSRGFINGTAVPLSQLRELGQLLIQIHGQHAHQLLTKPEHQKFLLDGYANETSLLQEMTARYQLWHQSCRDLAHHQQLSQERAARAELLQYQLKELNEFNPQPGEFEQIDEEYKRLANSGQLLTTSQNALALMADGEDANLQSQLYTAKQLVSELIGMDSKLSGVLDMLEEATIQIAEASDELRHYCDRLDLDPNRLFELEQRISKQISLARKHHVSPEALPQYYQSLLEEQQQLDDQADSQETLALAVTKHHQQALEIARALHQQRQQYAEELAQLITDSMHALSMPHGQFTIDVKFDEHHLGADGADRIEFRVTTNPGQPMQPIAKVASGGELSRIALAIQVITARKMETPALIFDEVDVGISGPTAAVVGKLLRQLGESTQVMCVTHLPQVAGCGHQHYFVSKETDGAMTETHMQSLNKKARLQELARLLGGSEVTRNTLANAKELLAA

T2: RecA (E. coli (endogenous in MG1655-derived WT strains)), P0A7G6
T2 chain: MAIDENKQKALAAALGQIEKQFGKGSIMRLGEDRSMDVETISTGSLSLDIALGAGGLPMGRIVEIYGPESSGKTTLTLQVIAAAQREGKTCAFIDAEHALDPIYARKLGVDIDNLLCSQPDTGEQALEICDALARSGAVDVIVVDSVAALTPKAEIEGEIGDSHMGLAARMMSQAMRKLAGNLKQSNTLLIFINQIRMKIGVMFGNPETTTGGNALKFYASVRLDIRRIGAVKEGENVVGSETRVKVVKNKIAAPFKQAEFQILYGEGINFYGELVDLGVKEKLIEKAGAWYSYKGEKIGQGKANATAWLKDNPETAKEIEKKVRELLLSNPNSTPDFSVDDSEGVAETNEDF


What was measured:
[1] = biological target: T1, RecN-Flag (E. coli), P05824; assay: co-IP; immunoprecipitation with an anti Flag antibody from WT E. coli strains expressing RecN-Flag, RecA detected; with or without MMC and RecN-Flag induction; conditions: remark: other sources report otherwise
[2] = biological target: T2, RecA (E. coli (endogenous in …)); assay: co-IP; immunoprecipitation with an anti RecA antibody from WT E. coli strains expressing RecN-Flag, RecN detected; cells with or without MMC; conditions: remark: other sources report otherwise

Row | Binder | binding [1] | binding [2]
1 | RecA, P0A7G6 1-353 (protein) MAIDENKQKALAAALGQIEKQFGKGSIMRLGEDRSMDVETISTGSLSLDIALGAGGLPMGRIVEIYGPESSGKTTLTLQVIAAAQREGKTCAFIDAEHALDPIYARKLGVDIDNLLCSQPDTGEQALEICDALARSGAVDVIVVDSVAALTPKAEIEGEIGDSHMGLAARMMSQAMRKLAGNLKQSNTLLIFINQIRMKIGVMFGNPETTTGGNALKFYASVRLDIRRIGAVKEGENVVGSETRVKVVKNKIAAPFKQAEFQILYGEGINFYGELVDLGVKEKLIEKAGAWYSYKGEKIGQGKANATAWLKDNPETAKEIEKKVRELLLSNPNSTPDFSVDDSEGVAETNEDF | binds | –
2 | RecN-Flag, P05824 1-553 (protein) MLAQLTISNFAIVRELEIDFHSGMTVITGETGAGKSIAIDALGLCLGGRAEADMVRTGAARADLCARFSLKDTPAALRWLEENQLEDGHECLLRRVISSDGRSRGFINGTAVPLSQLRELGQLLIQIHGQHAHQLLTKPEHQKFLLDGYANETSLLQEMTARYQLWHQSCRDLAHHQQLSQERAARAELLQYQLKELNEFNPQPGEFEQIDEEYKRLANSGQLLTTSQNALALMADGEDANLQSQLYTAKQLVSELIGMDSKLSGVLDMLEEATIQIAEASDELRHYCDRLDLDPNRLFELEQRISKQISLARKHHVSPEALPQYYQSLLEEQQQLDDQADSQETLALAVTKHHQQALEIARALHQQRQQYAEELAQLITDSMHALSMPHGQFTIDVKFDEHHLGADGADRIEFRVTTNPGQPMQPIAKVASGGELSRIALAIQVITARKMETPALIFDEVDVGISGPTAAVVGKLLRQLGESTQVMCVTHLPQVAGCGHQHYFVSKETDGAMTETHMQSLNKKARLQELARLLGGSEVTRNTLANAKELLAA | – | binds
